From the supplement of paper PMC10849652
The list shows a part of the results.

Chains of the proteins cited; added tags and fusions are not shown. Lines headed by an entry give the natural chain unless they say otherwise; changes in a name come on top.
UniProt P61769, whole entry, looked up: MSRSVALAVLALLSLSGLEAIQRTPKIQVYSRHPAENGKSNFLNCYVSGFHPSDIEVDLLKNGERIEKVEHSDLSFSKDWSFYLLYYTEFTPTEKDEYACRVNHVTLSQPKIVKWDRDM
UniProt Q8WXE1: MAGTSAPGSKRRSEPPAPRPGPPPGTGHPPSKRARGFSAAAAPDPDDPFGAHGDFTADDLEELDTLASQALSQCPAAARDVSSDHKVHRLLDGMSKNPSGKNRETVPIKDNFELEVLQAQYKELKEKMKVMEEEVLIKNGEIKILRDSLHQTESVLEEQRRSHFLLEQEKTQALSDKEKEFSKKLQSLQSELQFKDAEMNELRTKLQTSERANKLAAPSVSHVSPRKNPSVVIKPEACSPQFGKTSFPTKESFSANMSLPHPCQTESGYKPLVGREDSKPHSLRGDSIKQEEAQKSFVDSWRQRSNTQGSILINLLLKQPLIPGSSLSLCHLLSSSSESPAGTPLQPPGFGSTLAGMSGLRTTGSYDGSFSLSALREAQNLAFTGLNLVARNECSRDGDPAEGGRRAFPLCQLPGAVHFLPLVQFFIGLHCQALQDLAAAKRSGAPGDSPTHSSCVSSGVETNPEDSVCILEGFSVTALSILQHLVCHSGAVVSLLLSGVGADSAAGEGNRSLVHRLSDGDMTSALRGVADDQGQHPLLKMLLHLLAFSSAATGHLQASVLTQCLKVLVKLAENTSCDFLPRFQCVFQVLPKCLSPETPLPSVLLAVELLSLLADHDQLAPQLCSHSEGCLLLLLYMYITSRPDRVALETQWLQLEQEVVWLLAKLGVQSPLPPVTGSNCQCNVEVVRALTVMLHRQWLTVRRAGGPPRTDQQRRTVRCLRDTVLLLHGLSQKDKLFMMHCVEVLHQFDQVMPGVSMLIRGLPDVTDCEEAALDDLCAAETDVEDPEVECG
UniProt Q99933: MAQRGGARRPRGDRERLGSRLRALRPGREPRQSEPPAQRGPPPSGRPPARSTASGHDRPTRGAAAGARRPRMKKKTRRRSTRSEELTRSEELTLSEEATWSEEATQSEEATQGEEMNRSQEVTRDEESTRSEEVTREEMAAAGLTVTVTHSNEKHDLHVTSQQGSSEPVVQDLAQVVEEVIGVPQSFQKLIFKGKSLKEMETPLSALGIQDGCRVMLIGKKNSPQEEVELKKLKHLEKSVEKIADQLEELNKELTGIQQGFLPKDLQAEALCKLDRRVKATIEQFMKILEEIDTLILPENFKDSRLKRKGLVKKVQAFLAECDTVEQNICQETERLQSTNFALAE
UniProt Q07812, whole entry, looked up: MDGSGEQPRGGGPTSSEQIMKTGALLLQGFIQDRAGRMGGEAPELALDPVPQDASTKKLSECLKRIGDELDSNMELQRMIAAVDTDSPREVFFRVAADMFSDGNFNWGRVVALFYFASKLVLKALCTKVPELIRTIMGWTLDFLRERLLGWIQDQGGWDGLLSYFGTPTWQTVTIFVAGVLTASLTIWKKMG
UniProt P51572: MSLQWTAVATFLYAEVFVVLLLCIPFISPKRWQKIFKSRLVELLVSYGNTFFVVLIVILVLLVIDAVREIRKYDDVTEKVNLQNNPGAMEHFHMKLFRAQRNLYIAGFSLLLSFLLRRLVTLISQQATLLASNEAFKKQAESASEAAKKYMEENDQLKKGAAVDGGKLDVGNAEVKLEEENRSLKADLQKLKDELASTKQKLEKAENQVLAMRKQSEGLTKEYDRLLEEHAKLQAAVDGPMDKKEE
UniProt P53004: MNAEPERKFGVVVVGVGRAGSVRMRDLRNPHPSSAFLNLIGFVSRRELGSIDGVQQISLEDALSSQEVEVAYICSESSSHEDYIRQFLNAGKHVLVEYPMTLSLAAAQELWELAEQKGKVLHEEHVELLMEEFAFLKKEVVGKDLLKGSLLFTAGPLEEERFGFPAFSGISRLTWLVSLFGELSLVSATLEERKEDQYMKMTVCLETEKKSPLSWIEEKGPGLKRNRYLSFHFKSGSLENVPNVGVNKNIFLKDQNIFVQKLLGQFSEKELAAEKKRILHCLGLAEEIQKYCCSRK
UniProt P07738: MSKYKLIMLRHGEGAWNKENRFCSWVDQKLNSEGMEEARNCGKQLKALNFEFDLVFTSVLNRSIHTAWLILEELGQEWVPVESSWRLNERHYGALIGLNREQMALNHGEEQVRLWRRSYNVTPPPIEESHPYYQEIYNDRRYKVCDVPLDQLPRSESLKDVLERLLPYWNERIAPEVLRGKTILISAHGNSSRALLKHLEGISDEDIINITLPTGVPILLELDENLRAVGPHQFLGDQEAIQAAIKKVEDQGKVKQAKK
UniProt Q6QNY0: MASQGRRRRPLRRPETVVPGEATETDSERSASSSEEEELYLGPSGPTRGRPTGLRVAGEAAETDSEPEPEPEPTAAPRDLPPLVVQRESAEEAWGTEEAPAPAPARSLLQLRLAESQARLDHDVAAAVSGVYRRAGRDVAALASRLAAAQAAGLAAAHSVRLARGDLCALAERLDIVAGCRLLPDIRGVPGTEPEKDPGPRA
UniProt Q8WWM7: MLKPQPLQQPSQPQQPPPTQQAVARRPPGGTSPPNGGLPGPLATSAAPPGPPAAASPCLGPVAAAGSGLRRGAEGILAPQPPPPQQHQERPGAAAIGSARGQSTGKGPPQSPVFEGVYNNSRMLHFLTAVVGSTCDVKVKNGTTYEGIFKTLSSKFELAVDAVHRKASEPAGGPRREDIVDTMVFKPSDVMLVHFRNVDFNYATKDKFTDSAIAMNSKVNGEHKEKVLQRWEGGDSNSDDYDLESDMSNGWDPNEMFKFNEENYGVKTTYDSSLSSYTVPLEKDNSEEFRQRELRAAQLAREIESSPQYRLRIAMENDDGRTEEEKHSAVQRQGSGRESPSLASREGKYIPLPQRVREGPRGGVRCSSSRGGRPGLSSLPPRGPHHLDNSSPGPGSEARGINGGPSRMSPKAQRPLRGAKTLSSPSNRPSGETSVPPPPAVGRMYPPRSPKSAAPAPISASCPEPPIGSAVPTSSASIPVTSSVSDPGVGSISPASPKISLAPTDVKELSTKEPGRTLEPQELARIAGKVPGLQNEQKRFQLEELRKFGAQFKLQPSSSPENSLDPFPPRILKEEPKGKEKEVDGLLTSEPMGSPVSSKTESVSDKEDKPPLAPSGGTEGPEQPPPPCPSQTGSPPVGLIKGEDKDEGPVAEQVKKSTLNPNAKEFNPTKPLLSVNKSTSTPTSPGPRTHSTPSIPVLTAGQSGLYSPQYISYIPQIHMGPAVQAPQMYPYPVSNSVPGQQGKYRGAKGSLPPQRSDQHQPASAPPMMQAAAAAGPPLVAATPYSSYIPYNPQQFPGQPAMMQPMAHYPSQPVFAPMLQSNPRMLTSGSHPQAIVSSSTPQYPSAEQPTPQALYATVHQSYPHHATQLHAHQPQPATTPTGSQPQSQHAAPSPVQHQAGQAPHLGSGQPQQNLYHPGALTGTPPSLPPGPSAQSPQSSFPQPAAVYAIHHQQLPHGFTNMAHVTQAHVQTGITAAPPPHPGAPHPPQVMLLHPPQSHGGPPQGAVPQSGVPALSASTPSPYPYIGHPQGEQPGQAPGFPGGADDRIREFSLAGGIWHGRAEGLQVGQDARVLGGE
UniProt Q9H3K6: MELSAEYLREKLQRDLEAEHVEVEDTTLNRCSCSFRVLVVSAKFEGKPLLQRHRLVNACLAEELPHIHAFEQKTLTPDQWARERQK
UniProt Q9NXR7, whole entry, looked up: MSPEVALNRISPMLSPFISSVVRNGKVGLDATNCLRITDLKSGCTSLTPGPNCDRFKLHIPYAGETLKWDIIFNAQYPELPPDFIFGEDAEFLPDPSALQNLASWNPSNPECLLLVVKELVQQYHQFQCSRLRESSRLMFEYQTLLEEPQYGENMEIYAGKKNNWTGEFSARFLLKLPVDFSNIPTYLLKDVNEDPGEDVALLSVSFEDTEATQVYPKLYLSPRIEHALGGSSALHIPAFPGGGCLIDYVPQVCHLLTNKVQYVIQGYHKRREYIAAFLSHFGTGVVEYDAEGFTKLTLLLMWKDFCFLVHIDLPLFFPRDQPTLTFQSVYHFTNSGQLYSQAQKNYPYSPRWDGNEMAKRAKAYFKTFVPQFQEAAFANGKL
UniProt O95999: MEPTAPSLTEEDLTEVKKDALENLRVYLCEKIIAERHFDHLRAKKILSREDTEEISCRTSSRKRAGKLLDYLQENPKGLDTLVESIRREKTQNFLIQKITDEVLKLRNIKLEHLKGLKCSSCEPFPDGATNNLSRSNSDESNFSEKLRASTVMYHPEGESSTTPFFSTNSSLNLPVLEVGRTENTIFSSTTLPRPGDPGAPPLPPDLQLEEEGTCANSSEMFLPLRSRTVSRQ
UniProt Q14137: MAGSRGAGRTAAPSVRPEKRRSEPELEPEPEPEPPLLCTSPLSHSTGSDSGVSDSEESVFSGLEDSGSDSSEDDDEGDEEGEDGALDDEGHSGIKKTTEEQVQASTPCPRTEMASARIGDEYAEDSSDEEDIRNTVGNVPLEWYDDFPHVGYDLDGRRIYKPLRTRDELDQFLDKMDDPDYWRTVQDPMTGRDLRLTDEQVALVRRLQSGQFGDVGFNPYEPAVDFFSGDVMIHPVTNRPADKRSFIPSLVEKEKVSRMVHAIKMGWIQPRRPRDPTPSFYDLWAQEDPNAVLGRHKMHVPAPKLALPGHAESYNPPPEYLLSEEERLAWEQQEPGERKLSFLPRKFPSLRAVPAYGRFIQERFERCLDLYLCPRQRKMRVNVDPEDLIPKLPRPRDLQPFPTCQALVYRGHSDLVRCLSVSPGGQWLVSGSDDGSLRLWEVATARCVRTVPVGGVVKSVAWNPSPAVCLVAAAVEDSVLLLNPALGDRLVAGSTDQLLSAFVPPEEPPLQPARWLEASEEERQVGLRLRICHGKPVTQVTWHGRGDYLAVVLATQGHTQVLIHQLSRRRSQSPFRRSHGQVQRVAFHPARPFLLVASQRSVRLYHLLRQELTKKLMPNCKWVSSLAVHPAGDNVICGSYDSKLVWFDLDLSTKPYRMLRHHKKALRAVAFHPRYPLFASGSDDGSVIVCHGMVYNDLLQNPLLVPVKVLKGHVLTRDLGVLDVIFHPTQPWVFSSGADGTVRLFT
UniProt Q16611: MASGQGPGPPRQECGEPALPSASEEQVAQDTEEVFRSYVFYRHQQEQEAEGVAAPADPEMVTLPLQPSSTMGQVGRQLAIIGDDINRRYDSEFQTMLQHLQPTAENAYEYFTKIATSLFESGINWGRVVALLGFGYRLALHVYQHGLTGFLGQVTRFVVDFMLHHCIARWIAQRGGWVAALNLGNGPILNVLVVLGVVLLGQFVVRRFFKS
UniProt P55957: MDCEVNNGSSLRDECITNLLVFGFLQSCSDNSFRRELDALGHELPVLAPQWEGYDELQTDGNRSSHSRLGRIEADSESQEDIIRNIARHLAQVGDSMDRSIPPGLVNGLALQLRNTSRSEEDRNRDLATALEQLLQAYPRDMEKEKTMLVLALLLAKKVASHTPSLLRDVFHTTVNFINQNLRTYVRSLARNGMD
UniProt O95816: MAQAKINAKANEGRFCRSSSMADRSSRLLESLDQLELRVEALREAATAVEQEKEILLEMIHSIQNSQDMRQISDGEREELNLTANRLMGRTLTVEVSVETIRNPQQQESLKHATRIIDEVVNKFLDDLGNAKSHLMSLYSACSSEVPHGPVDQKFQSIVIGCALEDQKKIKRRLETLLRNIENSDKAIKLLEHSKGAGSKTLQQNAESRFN
UniProt Q9UHQ4: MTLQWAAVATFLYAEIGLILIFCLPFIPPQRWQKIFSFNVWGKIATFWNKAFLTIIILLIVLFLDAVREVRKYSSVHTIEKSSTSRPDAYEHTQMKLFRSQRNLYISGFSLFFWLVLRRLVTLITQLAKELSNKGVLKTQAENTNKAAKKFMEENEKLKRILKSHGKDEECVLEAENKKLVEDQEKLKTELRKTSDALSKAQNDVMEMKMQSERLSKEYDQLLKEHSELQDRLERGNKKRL
UniProt Q15059, whole entry, looked up: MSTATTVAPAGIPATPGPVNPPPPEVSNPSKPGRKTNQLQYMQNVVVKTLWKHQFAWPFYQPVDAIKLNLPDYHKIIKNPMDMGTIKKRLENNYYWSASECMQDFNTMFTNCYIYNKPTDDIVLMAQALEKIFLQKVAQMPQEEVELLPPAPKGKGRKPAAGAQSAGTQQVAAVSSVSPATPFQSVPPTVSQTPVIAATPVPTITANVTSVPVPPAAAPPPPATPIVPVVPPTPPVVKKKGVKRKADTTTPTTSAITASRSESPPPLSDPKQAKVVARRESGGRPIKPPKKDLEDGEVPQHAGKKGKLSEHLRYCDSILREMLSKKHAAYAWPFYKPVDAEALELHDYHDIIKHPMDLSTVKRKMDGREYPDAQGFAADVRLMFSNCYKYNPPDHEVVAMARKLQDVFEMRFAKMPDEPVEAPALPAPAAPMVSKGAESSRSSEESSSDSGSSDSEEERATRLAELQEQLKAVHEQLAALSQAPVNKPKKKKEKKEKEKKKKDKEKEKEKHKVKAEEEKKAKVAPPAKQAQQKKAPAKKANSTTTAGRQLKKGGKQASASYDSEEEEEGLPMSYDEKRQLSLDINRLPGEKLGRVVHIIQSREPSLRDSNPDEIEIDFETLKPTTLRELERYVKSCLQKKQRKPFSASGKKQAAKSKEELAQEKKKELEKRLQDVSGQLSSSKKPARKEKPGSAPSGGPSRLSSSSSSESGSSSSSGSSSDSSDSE

compound: O=C1NC(=O)C(c2cnc3ccccn23)=C1c1cn2c3c(cc(F)cc13)CN(C(=O)N1CCCCC1)CC2; assay: log2 fold change, soluble protein after heating vs DMSO (PISA); higher = thermal stabilisation; K562 cells, 10 uM, 30 min; active = over 0.2 and 3.5 SD of the protein, either way, in both replicates (recomputed)
Summary of the method: (§1)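 Soluble protein was defined as the supernatant after 21,000xg for 90 min. It came from K562 cells at 2×10^6 cells/mL given 10 μM compound for 30 min, heated in aliquots for 3 min across 48°C-58°C, pooled, and extracted in PBS with 0.5% NP-40 at 4°C, and was quantified by TMTpro 16plex LC-MS/MS with equalised channel sums. Thermal stability against control samples, from duplicates, is reported as log2 fold change.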

| Target | log2 fold change |
| --- | --- |
| ATR (UniProt Q13535) | inactive: -0.058 |
| BRIP1 (UniProt Q9BX63) | inactive: -0.07 |
| B2M (UniProt P61769) | inactive: -0.098 |
| BAG4 (UniProt O95429) | inactive: -0.019 |
| ATRIP (UniProt Q8WXE1) | inactive: -0.003 |
| BAG1 (UniProt Q99933) | inactive: 0.033 |
| BLOC1S4 (UniProt Q9NUP1) | inactive: 0.053 |
| BAX isoform 2 (UniProt Q07812) | inactive: -0.097 |
| ATRN (UniProt O75882) | active: -0.538 |
| BCAP31 isoform 2 (UniProt P51572) | inactive: -0.029 |
| BLVRA (UniProt P53004) | inactive: -0.074 |
| BPGM (UniProt P07738) | inactive: -0.01 |
| BLOC1S3 (UniProt Q6QNY0) | inactive: -0.013 |
| ATXN2L (UniProt Q8WWM7) | inactive: 0.017 |
| BOLA2 (UniProt Q9H3K6) | inactive: -0.119 |
| B4GAT1 (UniProt O43505) | inactive: 0.036 |

| Target | log2 fold change |
| --- | --- |
| BABAM2 (UniProt Q9NXR7) | inactive: -0.022 |
| BRIX1 (UniProt Q8TDN6) | inactive: 0.401 |
| BCL10 (UniProt O95999) | inactive: -0.001 |
| BROX (UniProt Q5VW32) | inactive: 0.024 |
| BBC3 (UniProt Q9BXH1) | inactive: -0.128 |
| BCL2L12 (UniProt Q9HB09) | inactive: 0.047 |
| BCAT2 (UniProt O15382) | inactive: -0.014 |
| BCKDHB (UniProt P21953) | inactive: -0.024 |
| BCAS2 (UniProt O75934) | inactive: 0.004 |
| BOP1 (UniProt Q14137) | active: -0.351 |
| BAK1 (UniProt Q16611) | inactive: -0.002 |
| BID isoform 2 (UniProt P55957) | inactive: 0.042 |
| BAG2 (UniProt O95816) | inactive: 0.253 |
| BCAP29 isoform 2 (UniProt Q9UHQ4) | inactive: -0.043 |
| B3GNTL1 (UniProt Q67FW5) | inactive: 0.237 |

compound: c1cc(OCCN2CCCCC2)cc(-c2n[nH]c3ccc(-c4nnc[nH]4)cc23)c1; assay: as above
Summary of the method: as §1

| Target | log2 fold change |
| --- | --- |
| ATR (UniProt Q13535) | inactive: -0.066 |
| BRD3 (UniProt Q15059) | inactive: -0.002 |
| BRIP1 (UniProt Q9BX63) | inactive: 0.077 |
| B2M (UniProt P61769) | inactive: -0.2 |
| BAG4 (UniProt O95429) | inactive: -0.071 |
| ATRIP (UniProt Q8WXE1) | inactive: 0.004 |
| BAG1 (UniProt Q99933) | inactive: -0.025 |
| BLOC1S4 (UniProt Q9NUP1) | inactive: -0.015 |
| BAX isoform 2 (UniProt Q07812) | inactive: -0.011 |
| ATRN (UniProt O75882) | inactive: -0.092 |
| BCAP31 isoform 2 (UniProt P51572) | inactive: -0.012 |
| BLVRA (UniProt P53004) | inactive: -0.06 |
| BPGM (UniProt P07738) | inactive: -0.001 |
| BLOC1S3 (UniProt Q6QNY0) | inactive: -0.014 |
| ATRAID isoform 3 (UniProt Q6UW56) | inactive: 0.003 |
| ATXN2L (UniProt Q8WWM7) | inactive: -0.074 |

| Target | log2 fold change |
| --- | --- |
| BOLA2 (UniProt Q9H3K6) | inactive: 0.009 |
| B4GAT1 (UniProt O43505) | inactive: 0 |
| BABAM2 (UniProt Q9NXR7) | inactive: -0.021 |
| BRIX1 (UniProt Q8TDN6) | inactive: -0.437 |
| BCL10 (UniProt O95999) | inactive: -0.048 |
| BROX (UniProt Q5VW32) | inactive: -0.01 |
| BBC3 (UniProt Q9BXH1) | inactive: -0.062 |
| BCL2L12 (UniProt Q9HB09) | inactive: -0.134 |
| BCAT2 (UniProt O15382) | inactive: 0 |
| BCKDHB (UniProt P21953) | inactive: -0.001 |
| BCAS2 (UniProt O75934) | inactive: -0.098 |
| BOP1 (UniProt Q14137) | inactive: -0.073 |
| BAK1 (UniProt Q16611) | inactive: -0.019 |
| BID isoform 2 (UniProt P55957) | inactive: 0.005 |
| BAG2 (UniProt O95816) | inactive: -0.147 |
| BCAP29 isoform 2 (UniProt Q9UHQ4) | inactive: -0.036 |
